Results deposited as PubChem BioAssay AID686938 (Drosophila RNAi Screening Center, 2013)
The screen tested about 23,000 reagents; below is an unselected part of those with a known target gene and a result. Over the whole deposit, 75 (0.33%) got an active call. 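Raw plate signals without normalisation; calls rest on plate z-scores that were not deposited; ratio present for only 364 wells.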 Unmarked entries are inactive. Reagents against one gene are numbered here. A plus sign joins genes that one reagent is predicted to hit. Not given: the dose of the treatment.

Screen: 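Knock-downs reducing store-operated calcium influx in Drosophila cells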 (primary screen)
System: Drosophila S2R+ cells
Reagents: long dsRNA against Drosophila genes, about 0.25 µg dsRNA per well, roughly 10,000 cells
Timing: 5 days of knock-down before the calcium assay
Challenge: thapsigargin (SERCA pump blocker) to empty calcium stores; entry signal taken 4 min after adding it
Measured: 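Per-well fluo-4 fluorescence in two replicates, unnormalised, measured in resting cells and 4 min after store depletion by the SERCA blocker thapsigargin; ratio of the two present in few wells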
Scale: calcium entry signal: higher = stronger calcium signal after store depletion; resting calcium signal: higher = higher resting calcium signal
Call rule: 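Hit if the duplicate-averaged plate z-score for entry over resting signal is under −3; wells with weak total dye signal (Fmax z < −2) or more than 5 off-targets removed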
Meaning of the calls: active = strongly reduced calcium entry; inactive = no strong reduction

predicted target | reagent | calcium entry signal, replicate 1 (fluorescence units) | calcium entry signal, replicate 2 (fluorescence units) | resting calcium signal, replicate 1 (fluorescence units) | resting calcium signal, replicate 2 (fluorescence units)
CG7110 | 1 | 3.82e7 | – | 1.78e7 | –
CG7110 | 2 | 3.51e7 | 2.26e7 | 1.64e7 | 1.04e7
Gem4b + Gem4c + Glos | 1 | 2.17e7 | 4.34e7 | 1.24e7 | 1.99e7
trn | 1 | 3.50e7 | 4.53e7 | 1.76e7 | 1.94e7
CG1902 | 1 | 3.09e7 | 2.97e7 | 1.41e7 | 1.45e7
PNKP | 1 | 2.69e7 | 2.03e7 | 1.37e7 | 1.04e7
CG15127 | 1 | 2.49e7 | 2.74e7 | 1.22e7 | 1.39e7
CG15127 | 2 | 5.49e7 | 5.49e7 | 2.31e7 | 2.53e7
smg | 1 | 3.95e7 | 2.71e7 | 2.91e7 | 1.17e7
kat-60L1 | 1 | 3.92e7 | 4.14e7 | 1.66e7 | 1.89e7
fl(2)d | 1 | 3.18e7 | 4.75e7 | 1.73e7 | 2.07e7
rols | 1 | 3.76e7 | 4.86e7 | 2.08e7 | 2.19e7
rols | 2 | 3.23e7 | 4.53e7 | 1.63e7 | 2.03e7
rols | 3 | 3.79e7 | 4.54e7 | 1.90e7 | 2.03e7
CG3348 | 1 | 3.55e7 | 5.34e7 | 1.81e7 | 2.20e7
CG40439 | 1 | 3.98e7 | 3.95e7 | 1.99e7 | 1.87e7
CG16820 | 1 | 4.23e7 | – | 2.19e7 | –
CG9926 | 1 | 3.18e7 | 3.67e7 | 1.42e7 | 1.64e7
obst-A | 1 | 2.94e7 | 3.74e7 | 1.38e7 | 1.64e7
Sgp | 1 | 4.80e7 | – | 2.27e7 | –
alpha-Cat | 1 | 4.29e7 | 4.41e7 | 1.99e7 | 2.13e7
CG2875 | 1 | 3.42e7 | 3.03e7 | 1.80e7 | 1.66e7
CG1622 | 1 | 4.23e7 | 4.68e7 | 1.95e7 | 1.93e7
CG17746 | 1 | 3.31e7 | 2.67e7 | 2.25e7 | 1.27e7
CG17746 | 2 | 3.90e7 | 3.14e7 | 1.93e7 | 1.46e7
CG30471 | 1 | 2.92e7 | 2.84e7 | 1.32e7 | 1.31e7
CG5708 | 1 | 3.11e7 | 4.05e7 | 1.58e7 | 1.82e7
CG31797 | 1 | 4.52e7 | 5.76e7 | 2.19e7 | 2.38e7
CG31797 | 2 | 4.66e7 | 5.36e7 | 2.14e7 | 2.20e7
MtnA | 1 | 2.15e7 | 2.46e7 | 1.16e7 | 1.18e7
ThrRS | 1 | 4.54e7 | – | 2.17e7 | –
Eig71Ei | 1 | 5.01e7 | 6.32e7 | 2.15e7 | 2.69e7
CG31226 | 1 | 2.56e7 | 3.28e7 | 1.41e7 | 1.62e7
Acp32CD | 1 | 2.85e7 | 4.10e7 | 1.41e7 | 1.73e7
Jhbp4 | 1 | 3.43e7 | 5.37e7 | 1.74e7 | 6.58e7
Cog2 | 1 | 3.34e7 | 4.22e7 | 1.67e7 | 6.27e7
HP1Lcsd | 1 | 2.26e7 | 3.49e7 | 1.21e7 | 1.52e7
CG10866 | 1 | 4.20e7 | 4.74e7 | 2.04e7 | 2.14e7
Ndfip | 1 | 4.52e7 | 4.67e7 | 1.96e7 | 3.24e7
CG7968 | 1 | 4.63e7 | 3.03e7 | 2.15e7 | 1.49e7
CG30467 | 1 | 4.03e7 | 3.67e7 | 2.10e7 | 1.66e7
CG15155 | 1 | 4.83e7 | 3.16e7 | 2.09e7 | 1.60e7
kermit | 1 | 3.87e7 | 3.42e7 | 1.58e7 | 1.52e7
CG13962 | 1 | 3.06e7 | 4.51e7 | 1.57e7 | 1.85e7
Irk2 | 1 | 5.74e7 | 4.77e7 | 2.60e7 | 2.06e7
Toll-4 | 1 | 2.55e7 | 4.50e7 | 1.26e7 | 1.81e7
CG14397 | 1 | 4.91e7 | 4.57e7 | 2.44e7 | 2.07e7
Nep5 | 1 | 3.09e7 | 3.55e7 | 1.37e7 | 1.66e7
dnr1 | 1 | 2.73e7 | 5.95e7 | 1.23e7 | 2.07e7
dnr1 | 2 | 3.38e7 | 3.01e7 | 1.76e7 | 1.54e7
CG10336 | 1 | 4.55e7 | – | 2.19e7 | –
Trs33 | 1 | 3.69e7 | 5.20e7 | 1.77e7 | 5.96e7
Rrp45 | 1 | 2.14e7 | 2.12e7 | 1.45e7 | 1.36e7
lncRNA:CR40053 | 1 | 3.65e7 | 4.83e7 | 1.77e7 | 2.03e7
jp | 1 | 5.11e7 | – | 2.34e7 | –
jp | 2 | 3.91e7 | 7.53e7 | 1.81e7 | 3.24e7
SLC5A11 | 1 | 5.27e7 | – | 3.12e7 | –
CG12519 | 1 | 2.53e7 | 5.42e7 | 1.22e7 | 2.16e7
CG12519 | 2 | 3.64e7 | 3.67e7 | 2.18e7 | 1.68e7

3 entries already listed, arranged by “resting calcium signal, replicate 1 (fluorescence units)”, ascending.
predicted target | reagent | calcium entry signal, replicate 1 (fluorescence units) | calcium entry signal, replicate 2 (fluorescence units) | resting calcium signal, replicate 1 (fluorescence units) | resting calcium signal, replicate 2 (fluorescence units)
CG2875 | 1 | 3.42e7 | 3.03e7 | 1.80e7 | 1.66e7
alpha-Cat | 1 | 4.29e7 | 4.41e7 | 1.99e7 | 2.13e7
Sgp | 1 | 4.80e7 | – | 2.27e7 | –
